System: male Long-Evans rats
Assay: Focal cerebral ischemia (right distal MCA cauterization with temporary bilateral CCA occlusion)
Type: in vivo
Conditions: for PaCO2 / arterial pH: arterial blood 30 min after MCA occlusion; for MABP Ischemia: average during occlusion; for MABP Steady State: just prior to occlusion; for relative blood flow in the right parietal cortex during occlusion, % of the baseline: laser Doppler, control 20.8±7.7%

What does the source list for `O=C1NCCc2c(OCCCCN3CCCCC3)cccc21` [DPQ, 3,4-dihydro-5-[4-(1-piperidinyl)-butoxy]-1(2H)-isoquinolinone]?
PaCO2 (5 mg/kg): 38.0 ± 2.8 mm Hg; arterial pH (5 mg/kg): 7.36; MABP Ischemia (5 mg/kg): 91 ± 12 mm Hg; MABP Steady State (5 mg/kg): 78 ± 5 mm Hg; relative blood flow in the right parietal cortex during occlusion, % of the baseline (5 mg/kg): 13.7±7.4%; PaCO2 (10 mg/kg): 39.3 ± 5.2 mm Hg; arterial pH (10 mg/kg): 7.34; MABP Ischemia (10 mg/kg): 90 ± 14 mm Hg; MABP Steady State (10 mg/kg): 80 ± 9 mm Hg; PaCO2 (20 mg/kg): 41.3 ± 2.8 mm Hg; arterial pH (20 mg/kg): 7.35; MABP Ischemia (20 mg/kg): 91 ± 12 mm Hg; MABP Steady State (20 mg/kg): 79 ± 10 mm Hg; PaCO2 (40 mg/kg): 39.5 ± 4.7 mm Hg; arterial pH (40 mg/kg): 7.33; MABP Ischemia (40 mg/kg): 88 ± 12 mm Hg; MABP Steady State (40 mg/kg): 78 ± 4 mm Hg; relative blood flow in the right parietal cortex during occlusion, % of the baseline (40 mg/kg): 19.3±11.2%; relative blood flow in the right parietal cortex during occlusion, % of the baseline (dose group not printed (n=7)): 21.4±7.7%

From US7157452B2, “Substituted 4,9-dihydrocyclopenta{imn}phenanthridine-5-ones derivatives thereof and their uses” (MGI GP, Inc., priority 2001, dated 2007)
